PubChem BioAssay AID504786 | Drosophila RNAi Screening Center – 2011

Aim: 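Positive regulators of HIF-driven reporter output in Drosophila cells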 (primary screen)
Cell system: Drosophila S2 cells with a stable HIF luciferase reporter
Reagents: long dsRNA against Drosophila genes, about 0.2 µg dsRNA per well of a 384-well plate
Timing: three days of knock-down, then 20 h of DFO before reading
Treatment: desferrioxamine (DFO) at 100 µM, an iron chelator that mimics hypoxia, for 20 h
Detection: 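Firefly luciferase driven by the mouse ldh-a hypoxia-response element, measured after 20 h of 100 µM DFO; z-scores per plate, higher means more signal lost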
Reading the numbers: z-score: higher = stronger loss of HIF reporter signal
In all, the deposit lists about 21,000 reagents; below is a random part of those that have a named target and a result. 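Primary screen; positive scores mean lost reporter signal, so the sign may be inverted from the usual convention.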 A plus sign joins genes that one reagent is predicted to hit. Not all columns of the deposit are shown.

The first 4 entries as a preview:
gene knocked down | dsRNA | z-score, replicate 1 | z-score, replicate 2
Npl4 (GeneID 43091) | DRSC15615 | -0.3 | -0.6
Npl4 (GeneID 43091) | DRSC15616 | 0.3 | 1.1
CG11779 + CG5835 | DRSC15886 | -0.8 | -0.2
pav (GeneID 38515) | DRSC08730 | -0.2 | 0.1

Main list, from the start:
gene knocked down | dsRNA | z-score, replicate 1 | z-score, replicate 2
Npl4 (GeneID 43091) | DRSC15615 | -0.3 | -0.6
Npl4 (GeneID 43091) | DRSC15616 | 0.3 | 1.1
CG11779 + CG5835 | DRSC15886 | -0.8 | -0.2
pav (GeneID 38515) | DRSC08730 | -0.2 | 0.1
CG18262 (GeneID 31745) | DRSC18149 | 0 | -0.3
Pp1-Y1 (GeneID 5740113) | DRSC20896 | -0.2 | -0.1
CG12521 (GeneID 50289) | DRSC09893 | -0.1 | -0.5
CtsL3 (GeneID 40741) | DRSC12171 | -0.4 | -0.6
amon (GeneID 43215) | DRSC13784 | -0.3 | -0.1
amon (GeneID 43215) | DRSC16900 | -0.4 | -0.5
CG8187 (GeneID 36720) | DRSC07099 | -0.2 | -0.2
galla-2 (GeneID 39221) | DRSC10936 | -0.3 | -0.2
Cpr51A (GeneID 36613) | DRSC05969 | -0.2 | 0.2
Cpr78Cb (GeneID 40353) | DRSC11847 | -0.1 | -0.1
CG30447 (GeneID 246621) | DRSC05820 | 0.6 | -0.1
CG13305 (GeneID 38992) | DRSC09975 | -0.1 | 1.5
Desat1 (GeneID 117369) | DRSC16668 | 0.1 | 0
CG8160 (GeneID 36701) | DRSC07086 | -0.4 | -0.1
CG34040 (GeneID 3885655) | DRSC03902 | -0.1 | 0.2
AANATL7 (GeneID 31236) | DRSC18616 | -0.2 | 0
Sr-CI (GeneID 33621) | DRSC00790 | -0.5 | 0.3
Herc4 (GeneID 38151) | DRSC08631 | -0.3 | -0.4
Or7a (GeneID 31750) | DRSC18691 | -0.3 | -0.5
Cyp6d4 (GeneID 42682) | DRSC16633 | -0.2 | 0
qvr (GeneID 2768718) | DRSC05280 | -0.1 | -0.1
CG7772 (GeneID 32776) | DRSC20056 | -0.2 | -0.5
CG8032 (GeneID 41026) | DRSC16365 | -0.3 | -0.4
lky (GeneID 33006) | DRSC20682 | -0.2 | -0.4
Rel (GeneID 41087) | DRSC16819 | -0.3 | -0.5
Ada2a (GeneID 326128) | DRSC16206 | -1.1 | 0
snama (GeneID 37857) | DRSC04049 | -0.6 | -1.1
CG44837 (GeneID 5740513) | DRSC10133 | 0.2 | -0.2
CG44837 (GeneID 5740513) | DRSC10558 | -0.2 | -0.3
CG15611 (GeneID 36930) | DRSC06563 | -0.2 | -0.2
CG15611 (GeneID 36930) | DRSC06564 | 0.1 | 0
Cht10 (GeneID 3355116) | DRSC03766 | -0.2 | -0.2
Cht10 (GeneID 3355116) | DRSC03767 | -0.2 | -0.1
Cht10 (GeneID 3355116) | DRSC03768 | -0.3 | -0.2
CG30001 (GeneID 246383) | DRSC05191 | -0.3 | -0.2
CG31467 (GeneID 318751) | DRSC16048 | -0.3 | -0.6
alpha-Est8 (GeneID 40899) | DRSC12620 | -0.4 | -0.5
CG43672 (GeneID 318910) | DRSC19452 | -0.1 | 0
CG43672 (GeneID 318910) | DRSC20108 | -0.2 | -0.6
M7BP (GeneID 35698) | DRSC05932 | -0.3 | -0.3
CG34425 (GeneID 5740837) | DRSC12210 | -0.3 | -0.5
CG12395 (GeneID 32571) | DRSC19453 | -0.4 | -0.8
CG33467 (GeneID 2768834) | DRSC05525 | -0.2 | -0.2
CG15279 (GeneID 34863) | DRSC01935 | -0.3 | -0.3
Acat1 (GeneID 31695) | DRSC17766 | -0.2 | -0.5
beta'COP (GeneID 45757) | DRSC03492 | 0 | 1.2
MESR4 (GeneID 36986) | DRSC06901 | 0.6 | 0.1
CG18538 (GeneID 37095) | DRSC06765 | -0.3 | -0.1
CG7236 (GeneID 33798) | DRSC03037 | -0.2 | 0.1
Hsp60D (GeneID 34763) | DRSC02543 | -0.4 | -0.5
a6 (GeneID 31127) | DRSC18733 | -0.2 | -0.1
cyp33 + CG34194 | DRSC05666 | 0.5 | 0.2
CG34382 (GeneID 5740788) | DRSC08999 | -0.5 | 0.1
CG34382 (GeneID 5740788) | DRSC10166 | -0.2 | -0.1
CG34382 (GeneID 5740788) | DRSC10167 | -0.3 | -0.3
NANS (GeneID 41528) | DRSC15743 | -0.3 | -0.2
tko (GeneID 31228) | DRSC18844 | 1.2 | 0
RpL6 (GeneID 43723) | DRSC14323 | 2.2 | 4.2
CG42570 (GeneID 8674011) | DRSC09391 | 0.6 | 0.7
COX4 (GeneID 35279) | DRSC02091 | 2.4 | 0.9
ea (GeneID 41858) | DRSC16939 | -0.4 | -0.3
CG11279 (GeneID 39486) | DRSC09837 | -0.1 | -0.3
ena (GeneID 37201) | DRSC05779 | -1 | -0.4
ena (GeneID 37201) | DRSC07610 | -0.2 | 0
CG7214 (GeneID 34053) | DRSC03028 | -0.3 | -0.2
FMRFa (GeneID 36030) | DRSC07428 | -0.3 | -0.1
Sclp (GeneID 32156) | DRSC19851 | -0.3 | -0.9
CG17567 (retired record) (GeneID 50468) | DRSC02627 | -0.3 | -0.5
Elys (GeneID 32971) | DRSC19571 | -0.3 | 0.1
CG11159 (GeneID 37341) | DRSC06050 | 0 | 0.2
Sox21b (GeneID 39569) | DRSC10025 | -0.2 | -0.4
Sox21b (GeneID 39569) | DRSC10634 | 0.6 | -0.6
Sulf1 (GeneID 53437) | DRSC16874 | -0.4 | -0.3
COX5B (GeneID 33918) | DRSC02115 | 0.8 | 1.2
CG15022 (GeneID 38549) | DRSC08476 | -0.2 | -0.8
CG12836 (GeneID 35630) | DRSC06182 | -0.3 | -0.1
Tina-1 (GeneID 37989) | DRSC04317 | -0.3 | -0.4
Cyp310a1 (GeneID 35115) | DRSC03301 | -0.3 | -0.3
Kr-h2 (GeneID 33859) | DRSC03356 | -0.3 | -0.2
Ir60e (GeneID 37917) | DRSC04227 | -0.2 | 0
CG17283 (GeneID 42094) | DRSC15219 | -0.2 | -0.2
CG16736 (GeneID 41101) | DRSC15145 | -0.3 | 0.6
CG44014 (GeneID 41893) | DRSC14995 | -0.1 | -0.2
DUBAI + Tmem18 | DRSC05344 | -0.3 | -0.2
kn (GeneID 45318) | DRSC05505 | 0 | -0.2
kn (GeneID 45318) | DRSC05507 | -0.2 | 0.1
kn (GeneID 45318) | DRSC06196 | -0.5 | -0.6
kn (GeneID 45318) | DRSC07637 | -0.2 | -0.3
hwt (GeneID 32202) | DRSC19386 | -0.9 | -0.3
Egfr (GeneID 37455) | DRSC03871 | -0.6 | -0.4
Egfr (GeneID 37455) | DRSC04613 | -0.3 | -0.5
Adi1 (GeneID 326189) | DRSC10945 | -0.2 | -0.2
Obp50c + Obp50b | DRSC05482 | -0.2 | -0.3
CG14448 (GeneID 40497) | DRSC11705 | -0.2 | -0.3
CG15353 (GeneID 50191) | DRSC00383 | -0.2 | 0.1
klar (GeneID 38067) | DRSC08718 | -0.2 | -0.3
Prosbeta2R2 (GeneID 40621) | DRSC12193 | -0.3 | 0
CG5339 (GeneID 37794) | DRSC04496 | -0.3 | -0.2
jhamt (GeneID 34977) | DRSC01985 | -0.1 | 0.1
Cht6 (GeneID 31935) | DRSC18001 | -0.2 | -0.5
Cht6 (GeneID 31935) | DRSC18002 | -0.2 | 1
Cht6 (GeneID 31935) | DRSC18253 | -0.3 | -0.5
